These are yes or no findings as the source states them, for the method shown. Binding seen in cells or lysates may run through a third protein. Some binding calls cover weakened binding; strength is not graded here. Where a sequence is shown, tags or fusion partners need not be part of it.
Tests used:
[1] = molecular target: T1, Mic25-Flag (human) (UniProt Q9BRQ6); assay: co-IP
T1 sequence: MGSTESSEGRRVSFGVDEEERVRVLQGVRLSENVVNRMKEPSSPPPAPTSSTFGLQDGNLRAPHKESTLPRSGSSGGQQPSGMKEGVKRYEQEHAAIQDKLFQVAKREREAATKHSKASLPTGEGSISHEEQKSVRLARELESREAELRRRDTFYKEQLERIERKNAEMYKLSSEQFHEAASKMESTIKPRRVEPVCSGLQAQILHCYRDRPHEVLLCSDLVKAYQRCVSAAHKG

[2] = molecular target: T2, Mic19 (1-35aa)-Flag (human) (UniProt Q9NX63); assay: co-IP
T2 sequence: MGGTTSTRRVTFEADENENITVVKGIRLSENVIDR

[3] = molecular target: T3, Mic19-Flag (human) (UniProt Q9NX63); assay: co-IP
T3 sequence: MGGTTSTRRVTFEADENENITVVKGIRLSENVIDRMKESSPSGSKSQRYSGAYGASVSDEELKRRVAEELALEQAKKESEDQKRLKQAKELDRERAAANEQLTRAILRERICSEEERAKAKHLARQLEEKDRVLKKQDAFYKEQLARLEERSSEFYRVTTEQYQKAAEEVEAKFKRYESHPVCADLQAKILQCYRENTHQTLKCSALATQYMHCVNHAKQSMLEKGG

[4] = molecular target: T4, Mic60 (371-590AA), GST or His fused (Figure 2D) (UniProt Q16891); assay: pull-down
T4 sequence: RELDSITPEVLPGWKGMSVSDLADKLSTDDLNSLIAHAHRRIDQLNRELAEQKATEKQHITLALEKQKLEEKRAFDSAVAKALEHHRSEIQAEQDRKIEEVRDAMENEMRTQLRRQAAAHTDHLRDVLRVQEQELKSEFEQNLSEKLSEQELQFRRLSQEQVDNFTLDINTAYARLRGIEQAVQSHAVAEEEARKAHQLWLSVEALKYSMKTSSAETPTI

[5] = molecular target: T5, Sam50, GST or His fused (Figure 2B-C) (UniProt Q9Y512); assay: pull-down
T5 sequence: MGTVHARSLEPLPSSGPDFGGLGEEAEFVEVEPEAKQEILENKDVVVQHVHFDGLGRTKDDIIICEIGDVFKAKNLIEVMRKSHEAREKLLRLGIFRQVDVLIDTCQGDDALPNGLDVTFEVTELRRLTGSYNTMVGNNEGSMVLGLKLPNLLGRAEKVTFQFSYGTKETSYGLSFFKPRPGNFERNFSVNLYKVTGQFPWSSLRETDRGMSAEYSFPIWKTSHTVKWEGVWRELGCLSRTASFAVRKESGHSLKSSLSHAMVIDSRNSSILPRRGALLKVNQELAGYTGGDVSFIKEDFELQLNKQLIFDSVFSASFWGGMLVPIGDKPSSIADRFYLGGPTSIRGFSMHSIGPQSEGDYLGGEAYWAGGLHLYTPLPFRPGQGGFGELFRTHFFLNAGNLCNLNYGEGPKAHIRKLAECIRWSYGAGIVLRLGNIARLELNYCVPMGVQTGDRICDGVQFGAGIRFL

[6] = molecular target: T6, GST-Mic25 (human) (UniProt Q9BRQ6); assay: pull-down
T6 sequence: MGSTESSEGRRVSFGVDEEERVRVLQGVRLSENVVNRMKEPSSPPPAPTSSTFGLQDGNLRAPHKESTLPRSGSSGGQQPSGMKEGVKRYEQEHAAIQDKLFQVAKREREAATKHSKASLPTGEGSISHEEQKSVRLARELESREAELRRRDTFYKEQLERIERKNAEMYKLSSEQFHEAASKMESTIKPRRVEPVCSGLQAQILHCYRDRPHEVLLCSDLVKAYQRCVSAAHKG

B1: Sam50 (endogenous) (protein, UniProt Q9Y512 1-469)
chain: MGTVHARSLEPLPSSGPDFGGLGEEAEFVEVEPEAKQEILENKDVVVQHVHFDGLGRTKDDIIICEIGDVFKAKNLIEVMRKSHEAREKLLRLGIFRQVDVLIDTCQGDDALPNGLDVTFEVTELRRLTGSYNTMVGNNEGSMVLGLKLPNLLGRAEKVTFQFSYGTKETSYGLSFFKPRPGNFERNFSVNLYKVTGQFPWSSLRETDRGMSAEYSFPIWKTSHTVKWEGVWRELGCLSRTASFAVRKESGHSLKSSLSHAMVIDSRNSSILPRRGALLKVNQELAGYTGGDVSFIKEDFELQLNKQLIFDSVFSASFWGGMLVPIGDKPSSIADRFYLGGPTSIRGFSMHSIGPQSEGDYLGGEAYWAGGLHLYTPLPFRPGQGGFGELFRTHFFLNAGNLCNLNYGEGPKAHIRKLAECIRWSYGAGIVLRLGNIARLELNYCVPMGVQTGDRICDGVQFGAGIRFL
- binding [1]: binds
- binding [2]: binds
- binding [3]: binds

Binder: MGGTTSTRRVTFEADENENITVVKGIRLSENVIDR (domain or fragment, UniProt Q9NX63 1-35) [Mic19 (1-35AA), GST or His fused]
- binding [4]: no binding
- binding [5]: binds

B2: Sam50 (Figure S3C) (protein, UniProt Q9Y512 1-469)
chain: MGTVHARSLEPLPSSGPDFGGLGEEAEFVEVEPEAKQEILENKDVVVQHVHFDGLGRTKDDIIICEIGDVFKAKNLIEVMRKSHEAREKLLRLGIFRQVDVLIDTCQGDDALPNGLDVTFEVTELRRLTGSYNTMVGNNEGSMVLGLKLPNLLGRAEKVTFQFSYGTKETSYGLSFFKPRPGNFERNFSVNLYKVTGQFPWSSLRETDRGMSAEYSFPIWKTSHTVKWEGVWRELGCLSRTASFAVRKESGHSLKSSLSHAMVIDSRNSSILPRRGALLKVNQELAGYTGGDVSFIKEDFELQLNKQLIFDSVFSASFWGGMLVPIGDKPSSIADRFYLGGPTSIRGFSMHSIGPQSEGDYLGGEAYWAGGLHLYTPLPFRPGQGGFGELFRTHFFLNAGNLCNLNYGEGPKAHIRKLAECIRWSYGAGIVLRLGNIARLELNYCVPMGVQTGDRICDGVQFGAGIRFL
- binding [6]: binds

B3: His-Mic60(371-590aa) (domain or fragment, UniProt Q16891 371-590)
chain: RELDSITPEVLPGWKGMSVSDLADKLSTDDLNSLIAHAHRRIDQLNRELAEQKATEKQHITLALEKQKLEEKRAFDSAVAKALEHHRSEIQAEQDRKIEEVRDAMENEMRTQLRRQAAAHTDHLRDVLRVQEQELKSEFEQNLSEKLSEQELQFRRLSQEQVDNFTLDINTAYARLRGIEQAVQSHAVAEEEARKAHQLWLSVEALKYSMKTSSAETPTI
- binding [6]: binds
